# Test results reported in US11957716B2 (Immatics Biotechnologies GmbH, priority 2021, dated 2024).
# Tested on: HLA molecules from shock-frozen tissue samples
# Assay: Identification and relative quantitation of tumor associated peptides presented on the cell surface by LC-MS (XPRESIDENT)
# Design: species or system human
# Conditions: all indications on which the peptide was identified at least once, independent of the HLA typing of the sample or the antibody used
row,Substance,Peptide presentation on cancer types
1,150 (IVFLLQQGEK; listed as Homo sapiens) [compound 150],"AML, BRCA, CCC, CRC, GC, MEL, NHL, NSCLC, OSCAR, PACA, SCLC, UBC, UEC"
2,151 (AVFVNWEQTKK; listed as Homo sapiens) [compound 151],"HNSCC, MEL, NHL, NSCLC, OSCAR"
3,152 (KIMEILNLK; listed as Homo sapiens) [compound 152],"AML, GC, MEL, NHL, NSCLC, OC, OSCAR, RCC, UBC, UEC"
4,153 (ALNLSRLTV; listed as Homo sapiens) [compound 153],"HCC, NSCLC, OSCAR, MEL, PRCA, HNSCC, NHL, RCC, CRC, GC, OC, CLL"
5,154 (TVTSAIVNR; listed as Homo sapiens) [compound 154],"CRC, GBC, GC, PACA, PRCA, SCLC, UBC"
6,155 (MPWVLMSPF; listed as Homo sapiens) [compound 155],"AML, CRC, NHL, NSCLC, OC, SCLC"
7,156 (SLRVPSPAL; listed as Homo sapiens) [compound 156],"BRCA, CRC, HNSCC, NHL, NSCLC, PRCA, RCC, UEC"
8,157 (APLRAGWAA; listed as Homo sapiens) [compound 157],"CCC, GC, GBC, HCC, NHL, PACA, RCC"
9,158 (FQLSGPVTF; listed as Homo sapiens) [compound 158],"BRCA, CRC, GBC, GC, NSCLC, OC, UEC"
10,159 (ASAIPAGAK; listed as Homo sapiens) [compound 159],"CRC, HNSCC, OC, RCC"
11,160 (EYLGSENVF; listed as Homo sapiens) [compound 160],"GC, PRCA"
12,161 (ILAASFQAR; listed as Homo sapiens) [compound 161],"CRC, GBM, HCC, HNSCC, RCC, UBC"
13,162 (LPVHGPLPLLL; listed as Homo sapiens) [compound 162],"BRCA, CCC, CRC, GBC, GC, HCC, HNSCC, NSCLC, OC, SCLC, UEC"
14,163 (LWALAIPSL; listed as Homo sapiens) [compound 163],"BRCA, GBC, NHL, NSCLC, OC, UEC"
15,164 (SHSSPTVSF; listed as Homo sapiens) [compound 164],"GC, PRCA, RCC"
16,165 (FYNPRPPLI; listed as Homo sapiens) [compound 165],GBC
17,166 (VIFLHQPPK; listed as Homo sapiens) [compound 166],MEL
18,167 (FALGPIIKQL; listed as Homo sapiens) [compound 167],"GBC, MEL, NSCLC, OSCAR, PRCA, UEC"
19,168 (AEGPDHHSL; listed as Homo sapiens) [compound 168],"AML, CRC, GBC, GC, HCC, HNSCC, OC, RCC"
20,169 (RPQGVGPAA; listed as Homo sapiens) [compound 169],"BRCA, GC, GBC, HNSCC, MEL, NSCLC, RCC, UBC"
21,170 (LLDSWNILI; listed as Homo sapiens) [compound 170],"NHL, MEL, OC, PRCA"
22,171 (NVSFEVSLLY; listed as Homo sapiens) [compound 171],"GC, HNSCC, NSCLC, OC, PACA, PRCA, RCC"

row,Substance,Peptide presentation on cancer types
1,172 (LLYKTLIIL; listed as Homo sapiens) [compound 172],"AML, CRC, HCC, NHL, NSCLC, PACA, PRCA"
2,173 (IFTGRNAYF; listed as Homo sapiens) [compound 173],"GBM, GC, HCC, NSCLC, OC, UBC, UEC"
3,174 (LSGPVTFLR; listed as Homo sapiens) [compound 174],"BRCA, CCC, OSCAR"
4,175 (MPFLKVPPL; listed as Homo sapiens) [compound 175],"CLL, NHL, NSCLC, SCLC"
5,176 (AFLLSLISL; listed as Homo sapiens) [compound 176],"BRCA, GC, MEL, NHL, NSCLC, OSCAR, UBC"
6,177 (SYLKDHLSL; listed as Homo sapiens) [compound 177],"CLL, GC, NSCLC, UBC"
7,178 (SLFGGLFTR; listed as Homo sapiens) [compound 178],"CCC, GBC, GC, HNSCC, NSCLC, UBC"
8,179 (MIFSGVFLR; listed as Homo sapiens) [compound 179],"AML, BRCA, CCC, GBC, GC, HCC, HNSCC, MEL, NSCLC, OC, OSCAR, RCC, PACA, UBC, UEC"
9,180 (QYLTYYPSF; listed as Homo sapiens) [compound 180],"CLL, CRC, NHL, NSCLC, OSCAR, PRCA, UBC, UEC"
10,181 (FDLNIGSAY; listed as Homo sapiens) [compound 181],"GBC, GC, HCC, HNSCC, NHL"
11,182 (RPSLPCRSF; listed as Homo sapiens) [compound 182],"BRCA, HNSCC, NHL, NSCLC, OSCAR, RCC, PACA, UEC"
12,183 (VFVISGSHLF; listed as Homo sapiens) [compound 183],"NHL, NSCLC, UBC, UEC"
13,184 (VVHGGMSIF; listed as Homo sapiens) [compound 184],"AML, BRCA, CCC, GC, NSCLC"
14,185 (MPAFLSRASAL; listed as Homo sapiens) [compound 185],"BRCA, CRC, GBC, GC, HNSCC, MEL, NSCLC, OSCAR, UBC"
15,186 (SQIKSPVVF; listed as Homo sapiens) [compound 186],"BRCA, CRC, GBM, GC, HCC, NSCLC, OC, RCC, SCLC"
16,187 (RLCPAAPTGK; listed as Homo sapiens) [compound 187],"BRCA, HCC, HNSCC, NSCLC, OSCAR"
17,188 (KLPFFTNFL; listed as Homo sapiens) [compound 188],"BRCA, CCC, CLL, CRC, GBC, GC, HNSCC, MEL, NHL, NSCLC, PACA, RCC, UBC, UEC"
18,189 (IWRALGSLF; listed as Homo sapiens) [compound 189],"GC, MEL, NSCLC, UBC"
19,190 (STQSSLLYLK; listed as Homo sapiens) [compound 190],"CCC, NHL, NSCLC, OC, RCC"
20,192 (IPLHFSTAF; listed as Homo sapiens) [compound 192],"AML, BRCA, GBC, GC, HCC, HNSCC, NHL, NSCLC, OC, OSCAR, RCC, SCLC, UBC, UEC"
21,193 (ILQLITVNR; listed as Homo sapiens) [compound 193],"BRCA, CCC, CRC, GBC, GC, HCC, HNSCC, NSCLC, OC, OSCAR, PACA, RCC, SCLC, UBC, UEC"
22,194 (VLYPSHSSF; listed as Homo sapiens) [compound 194],"GBC, HCC"

row,Substance,Peptide presentation on cancer types
1,195 (AWNESSAWLL; listed as Homo sapiens) [compound 195],"CRC, HCC"
2,196 (NSENLLVY; listed as Homo sapiens) [compound 196],"CCC, CRC, MEL, NHL, NSCLC"
3,197 (HHTQLVFVF; listed as Homo sapiens) [compound 197],"NHL, NSCLC, OC, UBC"
4,198 (MTYQQPFSNR; listed as Homo sapiens) [compound 198],"GBC, HCC, HNSCC, NHL, MEL, NSCLC, OC, OSCAR, UBC, UEC"
5,199 (RAPLPLLLL; listed as Homo sapiens) [compound 199],"GC, HNSCC, NSCLC, UBC"
6,200 (GLLGTLRVL; listed as Homo sapiens) [compound 200],"GBC, HCC, NSCLC, UBC"
7,201 (VWILQKVNLAF; listed as Homo sapiens) [compound 201],"CCC, CRC, GBC, HCC, HNSCC, PRCA, UBC"
8,202 (KLLLLSSVK; listed as Homo sapiens) [compound 202],"GC, GBC, HCC, NSCLC, PACA"
9,203 (AILVPQPPK; listed as Homo sapiens) [compound 203],"BRCA, CCC, CRC, GC, HCC, HNSCC, NHL, NSCLC, OC, OSCAR, SCLC"
10,204 (VVRASSGLK; listed as Homo sapiens) [compound 204],"AML, CLL, CRC, GBM, HCC, NSCLC, PACA, PRCA, RCC"
11,205 (SLIPIVPFKS; listed as Homo sapiens) [compound 205],"CLL, NHL"
12,206 (VEGVHFVQLL; listed as Homo sapiens) [compound 206],"CLL, HCC, NHL, OSCAR"
13,207 (LPALLRSL; listed as Homo sapiens) [compound 207],"BRCA, CLL, CRC, NSCLC"
14,208 (YVGPTRLEL; listed as Homo sapiens) [compound 208],"BRCA, CLL, GBM, MEL, NSCLC"
15,209 (AILLPQLPK; listed as Homo sapiens) [compound 209],"BRCA, CCC, HCC, GC, NSCLC, OSCAR, PACA, PRCA, RCC, SCLC, UTC"
16,210 (ASRIQVILL; listed as Homo sapiens) [compound 210],"BRCA, NSCLC, PRCA, SCLC, UTC"
17,211 (VVTIVMHIYK; listed as Homo sapiens) [compound 211],"AML, CCC, BRCA, MEL"
18,212 (WETRLHNLW; listed as Homo sapiens) [compound 212],"AML, BRCA, CLL, CRC, GC, HCC, HNSCC, MEL, NHL, NSCLC, OSCAR, PA; CA, PRCA, RCC, SCLC"
19,213 (TLLSFKTVLFK; listed as Homo sapiens) [compound 213],"AML, CRC, MEL, NHL, NSCLC, UEC"
20,214 (RPSPVRVAAL; listed as Homo sapiens) [compound 214],"AML, BRCA, CRC, GBC, GC, MEL, NHL, NSCLC, OSCAR, PACA, RCC, UBC, UEC"
21,215 (TPLTRTTL; listed as Homo sapiens) [compound 215],"CCC, CRC, GBM, MEL, NSCLC, OC, PACA, UBC"
22,216 (ILRTVLPSL; listed as Homo sapiens) [compound 216],"AML, HCC, HNSCC, NHL, NSCLC, OC, OSCAR, RCC, UEC"
